Record: PubChem BioAssay AID504764 (Drosophila RNAi Screening Center, 2011)
The deposit covers about 22,000 reagents; shown is an unselected part of those with a known target gene and a result. Over the whole deposit, 403 (1.9%) were called active. 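Unnormalised raw counts per well; ratio z-scores behind the hit calls and whether each hit raises or lowers signal are not deposited.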 Entries without a mark were called inactive. Not given: the amount of reagent.

Assay: 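Genes whose knock-down alters Notch-dependent transcription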 (primary screen)
Cell system: Drosophila Kc167 cells
Reagent: long dsRNA against Drosophila genes
Time to read-out: about 5 days (4 days dsRNA, then 24 h after transfection)
Challenge: transfection of constitutively active membrane-tethered Notch lacking the extracellular domain, read 24 h later
Detection: 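Firefly luciferase from an E(spl)m3 reporter with active Notch, plus control-promoter and uninduced reporter wells for normalisation; unnormalised counts, duplicate wells a and b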
Direction: induced reporter light, run 1, well a and induced reporter light, run 1, well b: higher = more light from the Notch target reporter with active Notch; control promoter light, run 1, well a and control promoter light, run 1, well b: higher = more light from the viral control promoter (cell number, transfection, viability); uninduced reporter light, run 1, well a: higher = more light from the Notch target reporter without active Notch
Rule for the call: 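Hit if the duplicate-averaged log2 ratio of induced to control-promoter light gives a plate-wise z beyond ±2, or induced to uninduced beyond ±1.8; weak-control or discordant-duplicate wells dropped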
Calls: active = modifier hit (raised or lowered Notch signal); inactive = not a hit

With knock-down of CG13121 (retired record) (GeneID 34298) [DRSC02217], the screen gave induced reporter light, run 1, well a = 1.08e5; induced reporter light, run 1, well b = 1.60e5; control promoter light, run 1, well a = 68090; control promoter light, run 1, well b = 91390; uninduced reporter light, run 1, well a = 16410.
Silencing of GstE5 (GeneID 37110) [DRSC06675] resulted in: induced reporter light, run 1, well a = 43435; induced reporter light, run 1, well b = 41375; control promoter light, run 1, well a = 42360; control promoter light, run 1, well b = 44855; uninduced reporter light, run 1, well a = 4820.
Ptp10D (GeneID 32115) [DRSC20272] scored induced reporter light, run 1, well a = 1.16e5; induced reporter light, run 1, well b = 1.18e5; control promoter light, run 1, well a = 2.70e5; control promoter light, run 1, well b = 1.91e5; uninduced reporter light, run 1, well a = 9510.
With knock-down of CG11634 (GeneID 35434) [DRSC03700], the record shows induced reporter light, run 1, well a = 43630; induced reporter light, run 1, well b = 45375; control promoter light, run 1, well a = 44800; control promoter light, run 1, well b = 33860; uninduced reporter light, run 1, well a = 3695.
After knock-down of Obp73a (GeneID 2768955) [DRSC09907], the record shows induced reporter light, run 1, well a = 1.18e5; induced reporter light, run 1, well b = 1.02e5; control promoter light, run 1, well a = 96625; control promoter light, run 1, well b = 1.03e5; uninduced reporter light, run 1, well a = 4392.
Knock-down of CG17786 (GeneID 42879) [DRSC15270] resulted in: induced reporter light, run 1, well a = 1.60e5; induced reporter light, run 1, well b = 1.44e5; control promoter light, run 1, well a = 2.02e5; control promoter light, run 1, well b = 2.36e5; uninduced reporter light, run 1, well a = 15255.
After knock-down of ymp (GeneID 43088) [DRSC13720], the screen gave induced reporter light, run 1, well a = 1.83e5; induced reporter light, run 1, well b = 2.09e5; control promoter light, run 1, well a = 1.87e5; control promoter light, run 1, well b = 1.76e5; uninduced reporter light, run 1, well a = 17900.
After knock-down of ymp (GeneID 43088) [DRSC14482], the screen gave induced reporter light, run 1, well a = 1.47e5; induced reporter light, run 1, well b = 1.91e5; control promoter light, run 1, well a = 1.77e5; control promoter light, run 1, well b = 1.71e5; uninduced reporter light, run 1, well a = 14335.
Knock-down of mthl1 (GeneID 32637) [DRSC19905] came out at: induced reporter light, run 1, well a = 71600; induced reporter light, run 1, well b = 60230; control promoter light, run 1, well a = 61730; control promoter light, run 1, well b = 51790; uninduced reporter light, run 1, well a = 6780.
Nmt (GeneID 38909) [DRSC11236] gave induced reporter light, run 1, well a = 1.83e5; induced reporter light, run 1, well b = 1.74e5; control promoter light, run 1, well a = 1.99e5; control promoter light, run 1, well b = 1.38e5; uninduced reporter light, run 1, well a = 15775.
Knock-down of Hex-A (GeneID 45875) [DRSC18259] gave: induced reporter light, run 1, well a = 93290; induced reporter light, run 1, well b = 79665; control promoter light, run 1, well a = 1.80e5; control promoter light, run 1, well b = 1.34e5; uninduced reporter light, run 1, well a = 6320.
After knock-down of ArfGAP3 (GeneID 40487) [DRSC11794] the results were induced reporter light, run 1, well a = 1.18e5; induced reporter light, run 1, well b = 1.10e5; control promoter light, run 1, well a = 1.02e5; control promoter light, run 1, well b = 1.09e5; uninduced reporter light, run 1, well a = 8880.

Targets above whose gene name begins with Y or y:
ymp (GeneID 43088) [DRSC13720] | induced reporter light, run 1, well a: 1.83e5; induced reporter light, run 1, well b: 2.09e5; control promoter light, run 1, well a: 1.87e5; control promoter light, run 1, well b: 1.76e5; uninduced reporter light, run 1, well a: 17900
ymp (GeneID 43088) [DRSC14482] | induced reporter light, run 1, well a: 1.47e5; induced reporter light, run 1, well b: 1.91e5; control promoter light, run 1, well a: 1.77e5; control promoter light, run 1, well b: 1.71e5; uninduced reporter light, run 1, well a: 14335
